Data from the supplement of paper PMC10849652.
The other results are listed elsewhere or left out.

By UniProt entry, the sequences of proteins in these tests, tags left out. Where a name states a change or a piece, a line headed by the entry shows the natural chain unless it says otherwise.
UniProt Q5QJ74: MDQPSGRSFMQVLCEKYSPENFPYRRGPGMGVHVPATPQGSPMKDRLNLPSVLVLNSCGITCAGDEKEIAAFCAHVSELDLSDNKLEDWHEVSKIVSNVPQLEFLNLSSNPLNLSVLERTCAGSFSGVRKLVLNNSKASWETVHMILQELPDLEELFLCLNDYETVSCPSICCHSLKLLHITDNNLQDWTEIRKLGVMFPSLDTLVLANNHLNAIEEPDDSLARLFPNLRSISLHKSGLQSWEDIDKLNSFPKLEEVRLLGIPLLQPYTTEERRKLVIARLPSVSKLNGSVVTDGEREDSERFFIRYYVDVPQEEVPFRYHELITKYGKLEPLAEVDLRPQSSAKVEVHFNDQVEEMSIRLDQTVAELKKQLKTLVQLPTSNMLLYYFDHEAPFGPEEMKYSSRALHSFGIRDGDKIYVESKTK
UniProt Q4KMP7: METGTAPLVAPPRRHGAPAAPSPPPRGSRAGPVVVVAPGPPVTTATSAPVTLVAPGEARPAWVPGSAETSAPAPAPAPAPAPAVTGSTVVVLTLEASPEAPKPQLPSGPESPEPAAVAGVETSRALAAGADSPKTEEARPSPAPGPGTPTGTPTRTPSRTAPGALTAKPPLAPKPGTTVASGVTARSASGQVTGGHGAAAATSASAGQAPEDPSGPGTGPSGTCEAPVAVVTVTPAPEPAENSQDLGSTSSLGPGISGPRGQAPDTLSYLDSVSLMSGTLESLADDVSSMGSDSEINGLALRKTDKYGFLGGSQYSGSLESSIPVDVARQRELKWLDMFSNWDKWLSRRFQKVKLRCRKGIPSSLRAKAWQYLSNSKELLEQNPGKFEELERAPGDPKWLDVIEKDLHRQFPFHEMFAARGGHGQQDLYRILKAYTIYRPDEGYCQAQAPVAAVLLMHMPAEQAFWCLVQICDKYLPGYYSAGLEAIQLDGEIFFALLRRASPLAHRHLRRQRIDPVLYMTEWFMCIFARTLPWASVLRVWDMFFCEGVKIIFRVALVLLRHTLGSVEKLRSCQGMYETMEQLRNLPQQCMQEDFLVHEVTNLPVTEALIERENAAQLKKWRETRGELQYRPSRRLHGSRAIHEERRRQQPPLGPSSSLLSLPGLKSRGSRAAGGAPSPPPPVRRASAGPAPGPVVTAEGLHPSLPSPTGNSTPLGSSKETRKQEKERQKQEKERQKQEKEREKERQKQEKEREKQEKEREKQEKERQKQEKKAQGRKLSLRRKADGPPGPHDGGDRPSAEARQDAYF
UniProt O75347: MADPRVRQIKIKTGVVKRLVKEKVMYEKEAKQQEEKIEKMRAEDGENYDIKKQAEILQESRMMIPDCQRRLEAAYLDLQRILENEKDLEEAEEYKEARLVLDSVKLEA
UniProt Q9UPU7: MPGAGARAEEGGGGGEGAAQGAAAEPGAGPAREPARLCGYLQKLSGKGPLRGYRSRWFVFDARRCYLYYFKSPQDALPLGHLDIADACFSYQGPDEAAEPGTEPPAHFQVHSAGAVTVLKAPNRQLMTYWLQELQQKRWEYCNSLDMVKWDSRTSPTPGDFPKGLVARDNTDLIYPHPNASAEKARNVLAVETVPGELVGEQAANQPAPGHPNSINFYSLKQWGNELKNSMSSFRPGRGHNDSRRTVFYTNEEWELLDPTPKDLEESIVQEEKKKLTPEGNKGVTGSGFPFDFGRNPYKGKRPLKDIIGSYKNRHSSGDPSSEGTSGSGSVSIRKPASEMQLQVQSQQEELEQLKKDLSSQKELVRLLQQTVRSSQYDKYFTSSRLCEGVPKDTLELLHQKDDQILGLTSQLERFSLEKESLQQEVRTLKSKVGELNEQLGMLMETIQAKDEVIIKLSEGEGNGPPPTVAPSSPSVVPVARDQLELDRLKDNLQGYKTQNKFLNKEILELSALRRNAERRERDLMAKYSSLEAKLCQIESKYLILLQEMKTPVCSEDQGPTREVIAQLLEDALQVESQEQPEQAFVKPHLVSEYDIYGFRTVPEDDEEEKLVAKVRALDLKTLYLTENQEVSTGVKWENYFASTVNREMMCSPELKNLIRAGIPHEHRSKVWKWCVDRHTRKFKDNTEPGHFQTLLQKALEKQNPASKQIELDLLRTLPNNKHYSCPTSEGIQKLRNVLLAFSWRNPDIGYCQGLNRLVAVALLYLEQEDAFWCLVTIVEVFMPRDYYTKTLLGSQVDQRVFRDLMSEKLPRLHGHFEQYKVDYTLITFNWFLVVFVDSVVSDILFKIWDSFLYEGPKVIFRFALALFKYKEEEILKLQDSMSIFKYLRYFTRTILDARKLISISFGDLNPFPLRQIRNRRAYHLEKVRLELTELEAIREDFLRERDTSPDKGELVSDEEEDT
UniProt Q8IWB9: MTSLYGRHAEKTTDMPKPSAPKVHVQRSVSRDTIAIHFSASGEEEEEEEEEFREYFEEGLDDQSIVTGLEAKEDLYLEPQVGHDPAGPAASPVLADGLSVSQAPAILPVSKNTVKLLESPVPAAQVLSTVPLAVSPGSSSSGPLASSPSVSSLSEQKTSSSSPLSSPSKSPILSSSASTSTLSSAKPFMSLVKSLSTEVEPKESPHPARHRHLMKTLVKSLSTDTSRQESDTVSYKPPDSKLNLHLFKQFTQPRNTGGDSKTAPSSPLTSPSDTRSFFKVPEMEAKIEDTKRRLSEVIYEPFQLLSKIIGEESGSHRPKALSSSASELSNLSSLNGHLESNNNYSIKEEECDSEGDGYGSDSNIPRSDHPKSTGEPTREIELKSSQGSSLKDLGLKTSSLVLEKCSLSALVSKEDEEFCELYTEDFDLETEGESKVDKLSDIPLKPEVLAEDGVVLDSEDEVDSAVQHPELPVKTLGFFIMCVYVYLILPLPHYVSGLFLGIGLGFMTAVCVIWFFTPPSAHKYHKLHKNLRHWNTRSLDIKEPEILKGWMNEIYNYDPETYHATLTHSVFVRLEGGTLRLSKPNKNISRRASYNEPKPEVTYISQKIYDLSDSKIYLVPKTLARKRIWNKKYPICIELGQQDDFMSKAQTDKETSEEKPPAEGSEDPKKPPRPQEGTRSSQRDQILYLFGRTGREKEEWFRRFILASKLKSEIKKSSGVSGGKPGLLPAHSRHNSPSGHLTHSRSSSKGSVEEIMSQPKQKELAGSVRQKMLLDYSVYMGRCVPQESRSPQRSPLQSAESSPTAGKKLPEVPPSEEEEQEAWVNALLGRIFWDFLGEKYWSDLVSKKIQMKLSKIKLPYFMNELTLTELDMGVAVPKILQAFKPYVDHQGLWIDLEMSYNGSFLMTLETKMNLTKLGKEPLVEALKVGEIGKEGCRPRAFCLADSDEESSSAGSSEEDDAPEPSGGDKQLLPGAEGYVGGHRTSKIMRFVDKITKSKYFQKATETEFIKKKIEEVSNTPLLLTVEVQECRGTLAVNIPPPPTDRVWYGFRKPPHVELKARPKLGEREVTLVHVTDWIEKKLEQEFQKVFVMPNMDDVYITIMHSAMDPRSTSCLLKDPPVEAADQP
UniProt O60347: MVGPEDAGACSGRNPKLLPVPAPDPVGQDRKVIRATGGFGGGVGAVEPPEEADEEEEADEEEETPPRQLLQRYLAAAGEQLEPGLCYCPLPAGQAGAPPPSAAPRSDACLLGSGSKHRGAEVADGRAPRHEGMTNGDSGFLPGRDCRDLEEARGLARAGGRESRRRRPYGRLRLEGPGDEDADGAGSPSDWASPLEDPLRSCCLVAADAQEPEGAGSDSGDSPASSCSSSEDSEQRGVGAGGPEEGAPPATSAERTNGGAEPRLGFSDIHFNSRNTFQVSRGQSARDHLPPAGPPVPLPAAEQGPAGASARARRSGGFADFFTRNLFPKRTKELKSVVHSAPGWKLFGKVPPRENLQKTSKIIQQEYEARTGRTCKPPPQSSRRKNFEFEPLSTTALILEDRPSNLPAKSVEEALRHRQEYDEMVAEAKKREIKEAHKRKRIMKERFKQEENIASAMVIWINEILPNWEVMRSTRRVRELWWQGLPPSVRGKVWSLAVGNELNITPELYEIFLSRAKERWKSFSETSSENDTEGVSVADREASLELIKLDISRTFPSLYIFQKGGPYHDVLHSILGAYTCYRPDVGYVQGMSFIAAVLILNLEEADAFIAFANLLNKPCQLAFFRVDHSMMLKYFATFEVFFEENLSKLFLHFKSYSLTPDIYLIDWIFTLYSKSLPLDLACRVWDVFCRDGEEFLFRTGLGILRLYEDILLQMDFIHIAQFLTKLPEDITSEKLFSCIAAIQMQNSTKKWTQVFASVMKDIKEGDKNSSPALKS
UniProt Q8TC07: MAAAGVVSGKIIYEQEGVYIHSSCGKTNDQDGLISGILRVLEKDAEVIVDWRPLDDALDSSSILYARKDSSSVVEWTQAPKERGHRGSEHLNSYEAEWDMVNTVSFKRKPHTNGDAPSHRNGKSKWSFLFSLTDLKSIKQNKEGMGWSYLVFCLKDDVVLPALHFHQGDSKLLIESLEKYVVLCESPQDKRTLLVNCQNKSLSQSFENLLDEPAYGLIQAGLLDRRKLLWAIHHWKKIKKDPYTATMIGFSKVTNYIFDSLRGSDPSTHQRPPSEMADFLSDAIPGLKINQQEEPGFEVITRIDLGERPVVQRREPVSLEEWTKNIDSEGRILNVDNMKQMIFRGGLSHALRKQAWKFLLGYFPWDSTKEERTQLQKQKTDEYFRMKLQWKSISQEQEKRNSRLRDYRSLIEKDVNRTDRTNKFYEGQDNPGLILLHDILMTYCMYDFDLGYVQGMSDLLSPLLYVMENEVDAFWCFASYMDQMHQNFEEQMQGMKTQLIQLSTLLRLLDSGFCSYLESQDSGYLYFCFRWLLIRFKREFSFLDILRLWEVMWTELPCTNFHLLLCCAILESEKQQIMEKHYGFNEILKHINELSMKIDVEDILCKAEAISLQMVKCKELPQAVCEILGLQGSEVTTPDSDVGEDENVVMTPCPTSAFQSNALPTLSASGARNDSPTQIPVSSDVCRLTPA
UniProt Q9BQ70: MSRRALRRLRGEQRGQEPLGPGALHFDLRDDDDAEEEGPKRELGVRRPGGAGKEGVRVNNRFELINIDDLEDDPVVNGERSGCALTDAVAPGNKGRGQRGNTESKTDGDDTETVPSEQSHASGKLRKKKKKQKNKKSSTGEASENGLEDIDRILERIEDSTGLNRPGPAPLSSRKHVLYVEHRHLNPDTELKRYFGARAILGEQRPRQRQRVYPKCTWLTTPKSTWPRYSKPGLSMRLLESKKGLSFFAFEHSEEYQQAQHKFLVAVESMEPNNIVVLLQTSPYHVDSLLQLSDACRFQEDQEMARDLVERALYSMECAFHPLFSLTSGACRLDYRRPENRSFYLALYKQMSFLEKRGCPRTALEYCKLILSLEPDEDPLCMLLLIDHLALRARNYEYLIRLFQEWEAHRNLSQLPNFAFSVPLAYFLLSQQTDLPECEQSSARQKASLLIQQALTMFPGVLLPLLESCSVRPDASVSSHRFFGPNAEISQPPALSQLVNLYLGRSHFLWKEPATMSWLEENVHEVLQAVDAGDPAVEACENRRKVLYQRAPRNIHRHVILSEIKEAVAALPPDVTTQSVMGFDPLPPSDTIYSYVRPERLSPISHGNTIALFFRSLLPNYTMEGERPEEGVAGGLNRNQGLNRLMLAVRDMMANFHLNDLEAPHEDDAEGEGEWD
UniProt A6NFQ2: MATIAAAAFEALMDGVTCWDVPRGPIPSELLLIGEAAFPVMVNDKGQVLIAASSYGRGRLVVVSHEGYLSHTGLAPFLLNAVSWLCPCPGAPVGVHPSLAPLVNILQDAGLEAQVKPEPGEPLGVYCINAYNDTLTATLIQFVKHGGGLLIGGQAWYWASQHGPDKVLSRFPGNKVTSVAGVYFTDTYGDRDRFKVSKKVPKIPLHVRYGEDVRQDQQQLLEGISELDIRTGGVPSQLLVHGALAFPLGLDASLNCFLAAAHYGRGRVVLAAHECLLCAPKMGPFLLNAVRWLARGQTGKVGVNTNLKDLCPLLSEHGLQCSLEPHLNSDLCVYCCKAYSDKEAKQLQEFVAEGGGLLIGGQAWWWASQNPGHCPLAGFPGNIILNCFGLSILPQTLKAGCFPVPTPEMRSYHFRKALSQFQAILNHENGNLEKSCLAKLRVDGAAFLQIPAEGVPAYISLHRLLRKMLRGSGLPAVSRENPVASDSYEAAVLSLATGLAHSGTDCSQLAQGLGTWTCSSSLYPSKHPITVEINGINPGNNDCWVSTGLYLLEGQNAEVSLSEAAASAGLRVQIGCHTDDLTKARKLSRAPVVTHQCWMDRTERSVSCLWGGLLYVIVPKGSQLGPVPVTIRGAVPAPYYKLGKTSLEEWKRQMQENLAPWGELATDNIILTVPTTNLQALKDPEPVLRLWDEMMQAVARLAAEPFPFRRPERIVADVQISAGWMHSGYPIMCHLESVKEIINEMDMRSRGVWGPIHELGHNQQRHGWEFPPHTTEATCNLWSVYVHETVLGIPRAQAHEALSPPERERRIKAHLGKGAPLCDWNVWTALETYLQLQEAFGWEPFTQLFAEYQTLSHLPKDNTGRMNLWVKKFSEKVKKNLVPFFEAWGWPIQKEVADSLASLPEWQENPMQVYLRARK

Compound: O=C(O)c1ccc2c(c1)nc(Nc1cccc(Cl)c1)c1ccncc12 [silmitasertib]
Assay: log2 fold change, soluble protein after heating vs DMSO (PISA); higher = thermal stabilisation; K562 lysate, 10 uM; active = over 0.2 and 3.5 SD of the protein, either way, in both replicates (recomputed)
Procedure, shortened: (§1)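 Pellets of K562 cells were dounce-homogenised in PBS pH 7.4 with 1 mM MgCl2, and the crude extract was held at 1 mg/mL protein for a 30 min treatment with 10 μM compound. Aliquots were heated for 3 min over 48°C-58°C and pooled before NP-40 was added to 0.5% at 4°C. The supernatant from 21,000xg for 90 min was quantified by TMTpro 16plex LC-MS/MS with channel sums equalised. Values are reported from duplicates as log-two fold change in thermal stability relative to solvent controls.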

log2 fold change, inactive:
TBCEL (UniProt Q5QJ74) 0.158, TBC1D10B (UniProt Q4KMP7) -0.028, TBL2 (UniProt Q9Y4P3) -0.007, TBCA (UniProt O75347) 0.014, TCEA1 (UniProt P23193) -0.012, TBCC (UniProt Q15814) 0.029, TFB2M (UniProt Q9H5Q4) -0.02, TBC1D8B (UniProt Q0IIM8) -0.037, TBC1D2B (UniProt Q9UPU7) 0.049, TCOF1 isoform 4 (UniProt Q13428) -0.019, TAF9 (UniProt Q16594) -0.011, TAX1BP1 (UniProt Q86VP1) 0.017, TARS1 (UniProt P26639) 0.011, TBL1X (UniProt O60907) 0.023, TATDN1 isoform 2 (UniProt Q6P1N9) -0.115, TBL1XR1 (UniProt Q9BZK7) -0.01, TAF9B (UniProt Q9HBM6) -0.025, TEAD2 isoform 4 (UniProt Q15562) -0.055, TEX2 isoform 2 (UniProt Q8IWB9) 0.006, TBC1D12 (UniProt O60347) -0.008, TFAP4 (UniProt Q01664) -0.196, TCERG1 (UniProt O14776) 0.016, TFB1M (UniProt Q8WVM0) 0.154, TDP1 (UniProt Q9NUW8) 0.035, TBC1D13 (UniProt Q9NVG8) 0.005, TARBP1 (UniProt Q13395) 0.097, TFDP2 (UniProt Q14188) -0.083, TBC1D7 (UniProt Q9P0N9) -0.028, TFIP11 (UniProt Q9UBB9) 0.013, TFAM (UniProt Q00059) -0.026, TCAF1 (UniProt Q9Y4C2) 0.017, TBC1D15 isoform 3 (UniProt Q8TC07) 0.035, TAF8 isoform 2 (UniProt Q7Z7C8) 0.04, TCF25 (UniProt Q9BQ70) 0.036, TCAF2 (UniProt A6NFQ2) 0, TEX264 (UniProt Q9Y6I9) 0.016, TELO2 (UniProt Q9Y4R8) 0.117

Compound: O=C1NC(=O)C(c2cnc3ccccn23)=C1c1cn2c3c(cc(F)cc13)CN(C(=O)N1CCCCC1)CC2
Assay: as above
Procedure, shortened: as §1

log2 fold change, inactive:
TBC1D10B (UniProt Q4KMP7) 0.005, TBL2 (UniProt Q9Y4P3) -0.035, TBCA (UniProt O75347) -0.014, TCEA1 (UniProt P23193) -0.015, TBCC (UniProt Q15814) -0.005, TFB2M (UniProt Q9H5Q4) -0.004, TBC1D8B (UniProt Q0IIM8) 0.011, TBC1D2B (UniProt Q9UPU7) -0.047, TCOF1 isoform 4 (UniProt Q13428) 0.009, TAF9 (UniProt Q16594) -0.003, TAX1BP1 (UniProt Q86VP1) 0.009, TARS1 (UniProt P26639) -0.009, TBL1X (UniProt O60907) -0.05, TATDN1 isoform 2 (UniProt Q6P1N9) 0.096, TBL1XR1 (UniProt Q9BZK7) 0.016, TAF9B (UniProt Q9HBM6) 0.011, TEX2 isoform 2 (UniProt Q8IWB9) -0.112, TBC1D12 (UniProt O60347) 0.001, TFAP4 (UniProt Q01664) 0.01, TCERG1 (UniProt O14776) -0.017, TFB1M (UniProt Q8WVM0) 0.027, TDP1 (UniProt Q9NUW8) -0.03, TBC1D13 (UniProt Q9NVG8) -0.003, TARBP1 (UniProt Q13395) 0.017, TFDP2 (UniProt Q14188) -0.014, TBC1D7 (UniProt Q9P0N9) 0.016, TFIP11 (UniProt Q9UBB9) 0.001, TFAM (UniProt Q00059) 0.002, TCAF1 (UniProt Q9Y4C2) 0, TBC1D15 isoform 3 (UniProt Q8TC07) -0.027, TAF8 isoform 2 (UniProt Q7Z7C8) -0.018, TCF25 (UniProt Q9BQ70) -0.051, TCAF2 (UniProt A6NFQ2) 0, TEX264 (UniProt Q9Y6I9) -0.075, TELO2 (UniProt Q9Y4R8) 0.011
